# The supplement of paper PMC12889115
# The other results are listed elsewhere or left out. These are raw signals, not scaled to a control.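 In the initial screen, polymyxin B was used at a concentration that permeabilizes Salmonella's outer membrane but not its inner membrane. Maximum growth was set by DMSO wells with or without polymyxin B. Since plates varied, data were ranked per plate, and compounds giving the lowest OD600 advanced as hits.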
# System: Salmonella enterica serovar Typhimurium SL1344
# Assay: bacterial growth OD600 after 18 h with compound and polymyxin B; higher = more bacterial growth (less inhibition)
# Conditions: 50 µM, Mueller-Hinton broth
SMILES,bacterial growth OD600 (polymyxin B 0.75 µg/mL),bacterial growth OD600 (polymyxin B 1 µg/mL)
C=C(C)CN(CC)Cc1c(C(=O)N2CCN(C3CCCCC3)CC2)nc2ccccn12,0.686,
COCc1c(C(=O)NCc2ccc3c(c2)CCCN3C)cnn1-c1ncc(C)c(-c2cccs2)n1,0.002,
COc1ccc(N2C(=O)CN(C(=O)c3cc(F)c(F)cc3F)CC2(C)C)cc1,0.911,
CC(C)Cc1ccc(CN2CCCC(NC(=O)CCCn3cncn3)C2)cc1 (stereo not drawn),,0.829
COc1ccc2cc(-c3n[nH]cc3CN3CCC(OCc4cccnc4)CC3)ccc2c1,,0.851
CCOC(=O)C1(Cc2ccc(F)cc2F)CCCN(C(=O)CCN2CCCCC2=O)C1 (stereo not drawn),,1.11
CCCc1cc(C(=O)NCc2nc(-c3cccc(NC(=O)CCc4cccnc4)c3)oc2C)no1,0.533,
Cc1oc(-c2ccccc2NC(=O)CC2CCCC2)nc1CNC(=O)C(C)(C)C,0.075,
